In data set [1] the test system is GST-CsWRKY25-C. Description: competition with a labelled probe. To be noted: Chemiluminescent EMSA Kit (Beyotime), recombinant protein, protein details: GST (N-terminal, pGEX-6p-1). In general terms: A gel shift assay detects complexes by their altered migration in electrophoresis.
The subject of data set [2] is GST-CsWRKY25-C. Description: EMSA. To be noted: cold probe competes; Chemiluminescent EMSA Kit (Beyotime); recombinant protein; protein details: GST (N-terminal, pGEX-6p-1); label: biotin.
The test system of data set [3] is GST. Description: EMSA. To be noted: GST only control; Chemiluminescent EMSA Kit (Beyotime); recombinant protein; protein details: GST; label: biotin.

The text below walks through data of paper PMC8784754.

For at least one entry, the source does not settle the construct or the ends of the probe. For some of these results: Negatives hold for the conditions tested. For some of these results: At least one verdict was read from the data and is not stated in words by the source.

In the case of “AGTTGAGGGAGAATTTTTTTGTGTTTCGCAAATATTTTTAAAAAAAATAAATTGAT / ATCAATTTATTTTTTTTTAAAAAATTTGCGAAACACAATAAAAATCTCCCTCAACT [CsRbohB mutant probe]”, the binding result in data set [1] (mutant competitor up to 100-fold vs N3) is “no binding”.
As to “TTACTAATTTGAAAAATTTGCTCGGCTTTGGTTGAAATGT (double strand) [CsPR10 mutant probe]”, the binding result in data set [1] (mutant competitor up to 100-fold vs N5) is “no binding”.
Consider “TTACTAATTTGTTGACTTTGCTCGGCTTTGGTTGAAATGT (double strand) [CsPR10 probe]”, for which the binding result in data set [2] is listed as “binds”.
For the sequence “TTCTCTAAAAAATTCAGCTATATAAACATTTTTTGTTTTTTTTTAATTGGATTACAC (double strand) [CsRbohD mutant probe]”, the binding result in data set [1] (mutant competitor up to 100-fold vs N1) is “no binding”.
“AGTTGAGGGAGAAGTCAATTGTGTTTCGCAAATAGTCAAAAAAAAAATAAATTGAT (double strand) [CsRbohB probe]”: the binding result in data set [2] is recorded as “binds”.
On to “TTCTCTAAAAAATTCAGCTATATAAACAGTCAATGTGTCATTTTAATTGGATTACAC (double strand) [CsRbohD probe]”, for which the binding result is “binds” in data set [2] and “no binding” in data set [3].
